Assay results published in publication PMC6033292.
These are yes or no findings as the source states them, for the method shown. In cells and extracts the contact can be indirect. Some results given as binding are weak or reduced against the parent protein; the word gives no strength.

Sequences of proteins named here, by UniProt entry; tags and fusion partners are left off. A change or cut given only in a name is not applied to a line headed by its entry.
UniProt Q8BTI9: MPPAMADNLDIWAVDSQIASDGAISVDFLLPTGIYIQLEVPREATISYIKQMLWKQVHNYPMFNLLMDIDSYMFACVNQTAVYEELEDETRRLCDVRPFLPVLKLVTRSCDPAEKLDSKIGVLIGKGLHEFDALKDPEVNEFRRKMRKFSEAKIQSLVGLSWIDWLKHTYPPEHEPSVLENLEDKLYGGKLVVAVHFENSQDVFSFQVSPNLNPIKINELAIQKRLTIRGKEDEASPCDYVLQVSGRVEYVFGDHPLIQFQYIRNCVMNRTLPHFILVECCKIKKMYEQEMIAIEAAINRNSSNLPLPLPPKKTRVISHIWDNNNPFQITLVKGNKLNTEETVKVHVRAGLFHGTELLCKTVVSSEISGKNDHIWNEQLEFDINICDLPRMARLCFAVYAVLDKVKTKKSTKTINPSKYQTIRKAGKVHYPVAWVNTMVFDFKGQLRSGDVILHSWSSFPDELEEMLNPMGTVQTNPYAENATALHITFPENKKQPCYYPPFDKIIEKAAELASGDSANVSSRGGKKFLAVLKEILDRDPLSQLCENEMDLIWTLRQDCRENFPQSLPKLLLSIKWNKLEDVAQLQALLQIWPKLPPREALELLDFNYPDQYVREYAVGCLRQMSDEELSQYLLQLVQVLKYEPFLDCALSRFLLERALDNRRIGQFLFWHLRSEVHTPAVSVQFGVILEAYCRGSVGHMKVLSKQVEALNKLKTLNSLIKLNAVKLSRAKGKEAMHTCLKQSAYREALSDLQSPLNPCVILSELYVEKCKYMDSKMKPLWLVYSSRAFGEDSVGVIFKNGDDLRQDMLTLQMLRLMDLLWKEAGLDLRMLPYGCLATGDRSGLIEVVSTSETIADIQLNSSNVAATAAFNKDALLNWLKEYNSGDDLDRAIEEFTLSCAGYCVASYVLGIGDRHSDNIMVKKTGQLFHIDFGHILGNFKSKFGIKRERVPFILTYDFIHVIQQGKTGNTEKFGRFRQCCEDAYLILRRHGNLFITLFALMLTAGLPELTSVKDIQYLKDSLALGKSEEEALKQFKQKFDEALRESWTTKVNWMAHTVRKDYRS
UniProt P60766: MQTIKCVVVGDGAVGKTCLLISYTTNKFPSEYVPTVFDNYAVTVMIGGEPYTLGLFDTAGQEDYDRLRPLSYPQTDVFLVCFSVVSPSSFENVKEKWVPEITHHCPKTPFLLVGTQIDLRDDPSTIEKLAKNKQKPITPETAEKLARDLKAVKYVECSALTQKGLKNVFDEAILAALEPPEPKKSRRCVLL

Target: phosphatidylinositol-4,5-bisphosphate 3-kinase catalytic subunit beta (p110β) (mouse (endogenous in ovaries)) (UniProt Q8BTI9)
Assay: co-IP; mouse ovary lysates (70 ovaries at 4 dpp, or 35 ovaries each group) in IP buffer; 5 ug antibody on magnet beads, 30 min at RT, three washes, Western blot; also cultured 2 dpp ovaries with or without ML141, and 1 dpp ovaries transfected with empty, CDC42-DN or CDC42-CA lentivirus

binding | Substance
binds | cell division cycle 42 (CDC42) (from UniProt P60766 1-191)
binds | constitutively active GTP-bound CDC42Q61L (CDC42-CA) (from UniProt P60766 1-191)
